Measurements reported in publication PMC4138181.
For at least one entry, the source does not settle the construct or the ends of the probe. Where cells or extracts were used, other partners may take part. For some assays here: Where a protein sequence is shown, tags need not be part of it. For some assays here: The direction of at least one scale is not stated here.

By UniProt entry, the sequences of proteins in these tests, tags left out.
UniProt O35767, whole entry: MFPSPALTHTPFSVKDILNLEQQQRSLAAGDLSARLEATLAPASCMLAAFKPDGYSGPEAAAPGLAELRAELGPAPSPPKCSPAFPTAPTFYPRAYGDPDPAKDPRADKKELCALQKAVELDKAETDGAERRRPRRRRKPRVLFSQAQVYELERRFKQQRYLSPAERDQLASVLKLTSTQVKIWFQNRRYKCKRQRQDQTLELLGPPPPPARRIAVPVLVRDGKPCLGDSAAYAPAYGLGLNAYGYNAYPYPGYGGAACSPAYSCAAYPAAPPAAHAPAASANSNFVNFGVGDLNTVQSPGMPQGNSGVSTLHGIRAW

Tests used:
[1] = molecular target: T1, ATF3 (adenoviral overexpression, NRCM nuclear extract) (UniProt P29596); assay: EMSA; conditions: ATF3 adenovirus 4 MOI, 24 h, P<0.001, reflects amount of active protein; EMSA binding buffer, pH and temperature not given; nuclear extract in 20 mM HEPES, 0.4 M NaCl, 1 mM EDTA, 1 mM EGTA, DTT; protein in an extract; residues 1-181; label: 32P (alpha-32P-dCTP), unlabeled as competitor
T1 sequence (looked up): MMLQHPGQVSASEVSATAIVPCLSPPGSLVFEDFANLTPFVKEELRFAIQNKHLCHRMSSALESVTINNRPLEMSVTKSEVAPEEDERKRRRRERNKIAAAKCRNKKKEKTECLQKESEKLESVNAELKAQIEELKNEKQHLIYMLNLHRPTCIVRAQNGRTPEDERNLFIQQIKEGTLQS

[2] = molecular target: T2, ATF3 (endogenous, NRCM nuclear extract) (Rattus norvegicus (neonatal rat cardiomyocytes)) (UniProt P29596); assay: EMSA; conditions: ET-1 100 nM, 1 h, reflects amount of active protein; EMSA binding buffer, pH and temperature not given; nuclear extract in 20 mM HEPES, 0.4 M NaCl, 1 mM EDTA, 1 mM EGTA, DTT; protein in an extract; label: 32P (alpha-32P-dCTP), unlabeled as competitor
T2 sequence (looked up, limits assumed): T1 sequence (looked up)

[3] = molecular target: T2, ATF3 (endogenous, NRCM nuclear extract) (Rattus norvegicus (neonatal rat cardiomyocytes)); assay: EMSA, supershift; conditions: p38alpha+MKK3b overexpression, increased binding activity, lesser with p38beta+MKK6b; EMSA binding buffer, pH and temperature not given; nuclear extract in 20 mM HEPES, 0.4 M NaCl, 1 mM EDTA, 1 mM EGTA, DTT; protein in an extract; label: 32P (alpha-32P-dCTP), unlabeled as competitor
[4] = molecular target: T2, ATF3 (endogenous, NRCM nuclear extract) (Rattus norvegicus (neonatal rat cardiomyocytes)); assay: EMSA, supershift, self competition; conditions: 1-, 10-, 100-fold molar excess self competitor, dose-dependent inhibition; EMSA binding buffer, pH and temperature not given; nuclear extract in 20 mM HEPES, 0.4 M NaCl, 1 mM EDTA, 1 mM EGTA, DTT; protein in an extract; label: 32P (alpha-32P-dCTP), unlabeled as competitor
[5] = molecular target: Nkx-2.5 (Rattus norvegicus (neonatal rat cardiomyocytes)) (UniProt O35767); assay: EMSA, supershift; conditions: binding activity increased by ATF3 overexpression; EMSA binding buffer, pH and temperature not given; nuclear extract in 20 mM HEPES, 0.4 M NaCl, 1 mM EDTA, 1 mM EGTA, DTT; protein in an extract; label: 32P (alpha-32P-dCTP)

**Q.** “CTCGATGCCATGACATCATCTTTA (double strand) [ATF3 probe]” was tested. Which binding signal (% increase vs LacZ extract) [1] did it give?
**A.** 35.6

**Q.** And the binding signal (% increase vs untreated extract) [2]?
**A.** 31.8

**Q.** Does “CTCGATGCCATGACATCATCTTTA (double strand) [ATF3 probe]” bind [3]?
**A.** binds

**Q.** Does “CTCGATGCCATGACATCATCTTTA (double strand) [ATF3 probe]” bind [4]?
**A.** binds

**Q.** Does “AGAGACCTTTGAAGTGGGGGCCTCTTGAGGCCCCG (double strand) [Nkx-2.5 probe]” bind [5]?
**A.** binds
